For one substance, binding results are on record in paper PMC12890814.

By UniProt entry, the sequences of proteins in these tests, tags left out. Where a name states a change or a piece, a line headed by the entry shows the natural chain unless it says otherwise.
UniProt Q15910: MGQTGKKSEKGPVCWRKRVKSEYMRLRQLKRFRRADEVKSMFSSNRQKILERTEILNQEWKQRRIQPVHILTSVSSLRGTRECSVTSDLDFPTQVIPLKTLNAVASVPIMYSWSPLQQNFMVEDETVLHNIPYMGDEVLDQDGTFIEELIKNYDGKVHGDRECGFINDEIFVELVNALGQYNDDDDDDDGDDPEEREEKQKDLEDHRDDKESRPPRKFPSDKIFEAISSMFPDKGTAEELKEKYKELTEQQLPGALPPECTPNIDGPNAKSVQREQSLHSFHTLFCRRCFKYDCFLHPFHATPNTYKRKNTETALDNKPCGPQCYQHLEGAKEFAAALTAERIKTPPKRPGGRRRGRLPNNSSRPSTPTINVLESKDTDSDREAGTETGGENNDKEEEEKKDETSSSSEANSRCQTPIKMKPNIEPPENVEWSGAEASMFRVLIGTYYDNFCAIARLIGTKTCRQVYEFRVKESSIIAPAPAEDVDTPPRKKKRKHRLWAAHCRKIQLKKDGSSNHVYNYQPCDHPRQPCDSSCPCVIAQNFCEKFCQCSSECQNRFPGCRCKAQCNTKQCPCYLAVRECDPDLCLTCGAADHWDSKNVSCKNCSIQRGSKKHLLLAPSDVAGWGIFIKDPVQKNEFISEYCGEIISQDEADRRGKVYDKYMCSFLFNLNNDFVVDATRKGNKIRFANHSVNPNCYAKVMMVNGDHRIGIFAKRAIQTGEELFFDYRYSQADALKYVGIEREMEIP
UniProt Q15022: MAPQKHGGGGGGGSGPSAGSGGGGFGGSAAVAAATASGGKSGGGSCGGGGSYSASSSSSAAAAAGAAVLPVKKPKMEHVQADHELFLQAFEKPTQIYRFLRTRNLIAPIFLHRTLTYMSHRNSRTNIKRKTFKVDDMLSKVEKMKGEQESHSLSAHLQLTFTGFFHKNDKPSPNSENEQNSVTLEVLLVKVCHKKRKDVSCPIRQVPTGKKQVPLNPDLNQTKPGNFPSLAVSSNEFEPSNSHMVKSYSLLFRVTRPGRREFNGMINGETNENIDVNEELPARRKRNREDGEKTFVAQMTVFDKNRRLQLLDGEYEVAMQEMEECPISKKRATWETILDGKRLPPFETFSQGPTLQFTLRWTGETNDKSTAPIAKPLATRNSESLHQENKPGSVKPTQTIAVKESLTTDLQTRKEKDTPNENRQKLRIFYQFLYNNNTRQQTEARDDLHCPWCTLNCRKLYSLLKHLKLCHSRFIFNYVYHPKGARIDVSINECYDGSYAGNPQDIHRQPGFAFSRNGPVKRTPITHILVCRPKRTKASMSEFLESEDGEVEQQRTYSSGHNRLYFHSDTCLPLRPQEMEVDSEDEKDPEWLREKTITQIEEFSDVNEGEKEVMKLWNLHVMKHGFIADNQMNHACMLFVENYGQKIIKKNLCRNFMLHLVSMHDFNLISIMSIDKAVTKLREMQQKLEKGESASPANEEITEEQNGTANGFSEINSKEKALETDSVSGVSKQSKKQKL
UniProt O75530: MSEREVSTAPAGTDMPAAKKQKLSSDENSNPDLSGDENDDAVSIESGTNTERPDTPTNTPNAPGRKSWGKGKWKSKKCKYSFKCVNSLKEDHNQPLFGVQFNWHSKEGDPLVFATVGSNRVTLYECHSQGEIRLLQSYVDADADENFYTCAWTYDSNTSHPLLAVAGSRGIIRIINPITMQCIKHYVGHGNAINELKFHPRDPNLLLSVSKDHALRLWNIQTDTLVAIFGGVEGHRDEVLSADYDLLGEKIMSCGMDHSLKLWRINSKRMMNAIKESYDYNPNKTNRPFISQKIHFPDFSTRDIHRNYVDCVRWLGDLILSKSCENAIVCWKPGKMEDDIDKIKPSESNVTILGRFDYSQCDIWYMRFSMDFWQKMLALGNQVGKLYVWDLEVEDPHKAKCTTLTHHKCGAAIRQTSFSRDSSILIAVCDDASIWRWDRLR
UniProt Q09028: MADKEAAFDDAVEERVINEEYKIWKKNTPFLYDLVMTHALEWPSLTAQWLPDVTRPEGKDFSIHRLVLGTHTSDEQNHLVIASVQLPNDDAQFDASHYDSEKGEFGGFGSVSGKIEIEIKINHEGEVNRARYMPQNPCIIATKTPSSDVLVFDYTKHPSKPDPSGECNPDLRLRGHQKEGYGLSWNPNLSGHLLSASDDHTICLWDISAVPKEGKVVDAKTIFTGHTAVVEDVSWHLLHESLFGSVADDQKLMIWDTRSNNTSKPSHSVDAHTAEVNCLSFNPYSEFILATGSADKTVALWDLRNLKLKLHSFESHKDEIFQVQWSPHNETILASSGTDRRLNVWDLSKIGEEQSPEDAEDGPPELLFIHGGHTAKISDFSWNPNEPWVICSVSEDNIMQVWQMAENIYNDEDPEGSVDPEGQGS
UniProt Q9Y483: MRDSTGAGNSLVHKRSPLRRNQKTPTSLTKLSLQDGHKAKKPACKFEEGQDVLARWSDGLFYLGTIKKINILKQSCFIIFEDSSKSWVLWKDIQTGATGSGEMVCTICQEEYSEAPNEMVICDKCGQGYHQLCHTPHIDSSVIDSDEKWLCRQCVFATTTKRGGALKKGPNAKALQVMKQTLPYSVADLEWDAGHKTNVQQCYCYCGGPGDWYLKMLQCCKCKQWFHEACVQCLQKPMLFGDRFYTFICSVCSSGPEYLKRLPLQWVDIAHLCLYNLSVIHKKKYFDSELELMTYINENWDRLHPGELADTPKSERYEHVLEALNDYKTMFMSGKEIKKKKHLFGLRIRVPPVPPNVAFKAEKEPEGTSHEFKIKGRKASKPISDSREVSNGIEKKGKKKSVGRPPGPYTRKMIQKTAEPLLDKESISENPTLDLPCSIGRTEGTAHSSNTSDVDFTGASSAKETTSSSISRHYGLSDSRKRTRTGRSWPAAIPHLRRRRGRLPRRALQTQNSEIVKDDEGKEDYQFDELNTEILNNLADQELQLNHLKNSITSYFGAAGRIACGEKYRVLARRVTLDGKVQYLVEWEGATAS

Results are given in words; binding and its absence hold for the method and conditions named. Some results given as binding are weak or reduced against the parent protein; the word gives no strength.

This test addresses PRC2 core complex (EZH2, SUZ12, EED, RBAP48) (human) (UniProt Q15910+Q15022+O75530+Q09028). Description: co-purification of co-expressed subunits (affinity resin, then SEC); All subunits co-expressed in Sf9 from one baculovirus; lysate in BC150 buffer; Strep-Tactin Macroprep resin (Strep on MTF2 and EZH2), tags cleaved, Superose 6 SEC, peak fractions pooled; subunits shown by Coomassie staining.

For MTF2 (from UniProt Q9Y483 1-593), the binding entry is on record as “binds”.
